From publication PMC10454243, “Anticancer Study of a Novel Pan-HDAC Inhibitor MPT0G236 in Colorectal Cancer Cells” (International Journal of Molecular Sciences, 2023)

Columns and labels:
[1] = system: human umbilical vein endothelial cells (HUVECs); experiment: MTT cell viability assay, HUVEC; format: cell-based; conditions: 48 h, read-out: IC50 cell viability
[2] = system: HCT-116 human colorectal cancer cells; experiment: MTT cell viability assay, HCT-116; format: cell-based; conditions: HCT-116, 48 h, read-out: IC50 cell viability

## O=C(CCCCCCC(=O)Nc1ccccc1)NO [SAHA, Suberoylanilide hydroxamic acid, reference compound]
[1]
  IC50: 16.6 µM
[2]
  IC50: 1.28 µM
